Test [1] concerns the target DDX54 D250A (ATPase-deficient DDX54 mutant, tagged, overexpressed) (UniProt Q8TDD1). Description: co-IP.
The target in test [2] is DDX54-Flag (DEAD-box helicase 54, tagged, overexpressed) (UniProt Q8TDD1). Description: co-IP.

Chains of the proteins cited; added tags and fusions are not shown. Lines headed by an entry give the natural chain unless they say otherwise; changes in a name come on top.
UniProt Q8TDD1: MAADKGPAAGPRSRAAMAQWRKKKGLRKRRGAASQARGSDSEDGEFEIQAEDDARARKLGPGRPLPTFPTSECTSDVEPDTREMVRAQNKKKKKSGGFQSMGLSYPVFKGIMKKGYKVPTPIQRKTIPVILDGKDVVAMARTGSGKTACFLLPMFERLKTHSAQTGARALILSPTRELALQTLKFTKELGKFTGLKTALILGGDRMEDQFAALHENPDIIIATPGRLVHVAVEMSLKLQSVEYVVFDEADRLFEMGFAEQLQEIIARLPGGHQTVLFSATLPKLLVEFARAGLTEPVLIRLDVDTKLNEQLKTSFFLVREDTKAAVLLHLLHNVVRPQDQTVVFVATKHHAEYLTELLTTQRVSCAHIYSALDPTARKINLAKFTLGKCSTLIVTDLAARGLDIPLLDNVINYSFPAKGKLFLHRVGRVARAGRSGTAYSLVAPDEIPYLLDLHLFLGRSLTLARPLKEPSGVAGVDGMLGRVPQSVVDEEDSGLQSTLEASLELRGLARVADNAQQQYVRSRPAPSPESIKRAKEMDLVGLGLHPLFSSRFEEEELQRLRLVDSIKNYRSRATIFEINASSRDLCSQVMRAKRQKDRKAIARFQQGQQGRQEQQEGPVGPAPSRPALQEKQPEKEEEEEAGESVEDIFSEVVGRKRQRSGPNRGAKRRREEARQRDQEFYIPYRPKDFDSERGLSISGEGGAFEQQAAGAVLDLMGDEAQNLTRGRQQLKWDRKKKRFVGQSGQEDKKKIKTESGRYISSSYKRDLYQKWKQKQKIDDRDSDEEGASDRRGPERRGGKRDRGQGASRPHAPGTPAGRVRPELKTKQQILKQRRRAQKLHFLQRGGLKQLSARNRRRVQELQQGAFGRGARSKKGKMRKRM

These are yes or no findings as the source states them, for the method shown. Binding seen in cells or lysates may run through a third protein. Some entries that bind do so weakly or less than the wild type. For some of these results: Sequences can lack the tags named with a protein.

With “ALKBH5-Flag (AlkB homolog 5, tagged, overexpressed) (from UniProt Q6P6C2-2 1-394) (enzyme)”, the binding result in test [1] and in test [2] was “binds” throughout.
As to “METTL3 (m6A methyltransferase-like 3, tagged, overexpressed) (from UniProt Q86U44-1 1-580) (enzyme)”, in test [2], the binding result is listed as “binds”.

B1: METTL14 (tagged, overexpressed) (enzyme, UniProt Q9HCE5 1-456)
chain: MDSRLQEIRERQKLRRQLLAQQLGAESADSIGAVLNSKDEQREIAETRETCRASYDTSAPNAKRKYLDEGETDEDKMEEYKDELEMQQDEENLPYEEEIYKDSSTFLKGTQSLNPHNDYCQHFVDTGHRPQNFIRDVGLADRFEEYPKLRELIRLKDELIAKSNTPPMYLQADIEAFDIRELTPKFDVILLEPPLEEYYRETGITANEKCWTWDDIMKLEIDEIAAPRSFIFLWCGSGEGLDLGRVCLRKWGYRRCEDICWIKTNKNNPGKTKTLDPKAVFQRTKEHCLMGIKGTVKRSTDGDFIHANVDIDLIITEEPEIGNIEKPVEIFHIIEHFCLGRRRLHLFGRDSTIRPGWLTVGPTLTNSNYNAETYASYFSAPNSYLTGCTEEIERLRPKSPPPKSKSDRGGGAPRGGGRGGTSAGRGRERNRSNFRGERGGFRGGRGGAHRGGFPPR
For the molecule B1, in test [2], the binding entry is recorded as “binds”.

The values are drawn from PMC12456001.
